{
  "source": "patent US5776744A",
  "about": "“Methods and compositions for effecting homologous recombination” (Yale University, priority 1995, dated 1998)",
  "origin": "cited, not measured here",
  "system": "cells",
  "details": "free state, not attached to third strands; read-out: concentration at which psoralen delivered in the free state is normally toxic to cells",
  "note": "The name of at least one read-out is uncertain.",
  "data": [
    {"molecule": "O=c1ccc2cc3ccoc3cc2o1", "note": "[Psoralen, psoralen]", "values": [
      {"measurement": "MCC", "result": "1 to 10", "unit": "nM"}
    ]}
  ]
}
